{
  "source": "patent US20240368259A1",
  "binders": {"B1": {"name": "anti-LEFTY1 1189 specific mIgG1 antibody clone 1 H11 (antibody, V domains shown)", "VH": "QSLEESGGDLVKPEGSLTLTCTASGFSFSSSYWICWVRQAPGKGLERIACIYAGSTGTTYYASWAKGRFTISKTSSTTVTLQMTSLTAADTATYFCARGDYNSGWGVNLWGPGTLVTISS", "VL": "DVVMTQTASSASEPVGGTVTIKCQASESISSNLAWYQQKPGQRPKLLIYSASTLASGVPSRFSGSGSGTEFTLTISDLECADAATYYCQCTDYVNSGAFGGGTEVVVKR"}},
  "molecular_target": "1189 SCR1 (human LEFTY1-human Fc fusion protein) (human)",
  "experiment": "ELISA on plates coated with LEFTY1 SCR (FIG. 26)",
  "note": "Results are given in words; binding and its absence hold for the method and conditions named. Some binding calls cover weakened binding; strength is not graded here.",
  "data": [
    {"binder": "B1", "values": [
      {"measurement": "binding", "result": "binds"}
    ]}
  ]
}
